{
  "source": "patent US8211875B2",
  "about": "“Local treatment of neurofibromas” (Nexgenix Pharmaceuticals Inc, priority 2005, dated 2012)",
  "test": "Cell proliferation assay (ATPlite) in a panel of NF1 related cell lines",
  "assay_type": "cell-based, human and mouse",
  "settings": "72 h, several NF1-related cell lines, cultured 3 days, selection criterion IC50 equal or below 10 μM, read-out: IC50 (concentration required for inhibition of cell proliferation by 50%)",
  "description": "Several physiologically relevant cells or cell lines were employed to measure compound potency in cell proliferation assays. These cells include: (1) NF1-deficient human malignant peripheral nerve sheath tumor (MPNST) cells, (2) Nf1^−/− mouse embryonic Schwann cells, and (3) Nf1- and p53-deficient mouse cell. […] All the other cells are grown in DMEM with 10% fetal bovine serum (FBS).\nVarious concentrations of each compound/agent to be tested were added to the growing media and the cells were then cultured for 3 days. […] Viable cells were measured by detecting luminescence generated from reaction of ATPlite solution and the ATP in the cells.",
  "data": [
    {"smiles": "Clc1ccccc1C(c1ccccc1)(c1ccccc1)n1ccnc1", "note": "[clotrimazole, Clotrimazole]", "values": [
      {"measurement": "IC50", "result": "≤ 10", "unit": "µM"}
    ]}
  ]
}
